# Measured values as given in PubChem BioAssay AID308 (DTP/NCI, 2004).
# The list does not hold the whole screen: it is rich in T/C values a quarter to a half above the control, in often repeated tests (any T/C) and in doses without a T/C. Further doses and runs are listed elsewhere. T/C is the treated group as % of the vehicle group. Some doses have a count of surviving animals in place of a T/C: the source holds a T/C of zero for them, seemingly a mark for toxic or unscored doses. Some doses without a T/C left all or most animals alive at the check, yet need not have been tolerated: survival well below the control is almost never listed, so the zero probably covers shortened survival too. Counts of survivors are from the toxicity check (mostly the fifth day) where no day follows; animals may have died later. Schedule codes are those of the source, taken here to give the interval after Q, in days (D) or hours (H), and the number of doses after X. Some schedule codes hold Z or #, which are not explained here. For survival time, the PubChem record calls one and a half times the control and up active, and a quarter to a half above the control has no call in these data; cut-offs in other NCI protocols can differ.
# Tested on: BDF1 mice, L1210 6-MP/6-TG resistant leukemia ip, survival T/C
# Assay: NCI In Vivo Anticancer Drug Screen. Data for tumor model L1210 Leukemia resistant to 6-MP and 6-Thioguanine; NSC 755, NSC 752 (intraperitoneal) in B6D2F1 (BDF1) mice
# Conditions: T/C endpoint: mean survival time, higher T/C = longer survival
# Experimental: The antitumor activity of compounds was measured in mice bearing transplantable tumors. Survival or tumor size were measured and the results are expressed as the measurement made in the treated group (T) divided by the measurement made in the vehicle treated control group (C). The tumor model used in this assay is L1210 Leukemia resistant to 6-MP and 6-Thioguanine; NSC 755, NSC 752 (intraperitoneal) in B6D2F1 (BDF1) mice
# [1] = dose: 200.0 mg/kg/injection, schedule: Q01DX Z (ip), vehicle: saline
# [2] = dose: 25.0 mg/kg/injection, schedule: Q01DX Z (ip), vehicle: carboxymethylcellulose (CMC)
# [3] = dose: 50.0 mg/kg/injection, schedule: Q01DX Z (ip), vehicle: carboxymethylcellulose (CMC)
# [4] = dose: 75.0 mg/kg/injection, schedule: Q01DX Z (ip), vehicle: carboxymethylcellulose (CMC)
# [5] = dose: 100.0 mg/kg/injection, schedule: Q01DX Z (ip), vehicle: carboxymethylcellulose (CMC)
# [6] = dose: 200.0 mg/kg/injection, schedule: Q01DX Z (ip), vehicle: carboxymethylcellulose (CMC)
smiles,measurement,setting,value
CN(Cc1cnc2nc(N)nc(N)c2n1)c1c(Cl)cc(C(=O)NC(CCC(=O)O)C(=O)O)cc1Cl (stereo not drawn),T/C,"dose: 15.0 mg/kg/injection, schedule: Q01DX015 (ip), vehicle: carboxymethylcellulose (CMC)",139 % of control
same,T/C,"dose: 80.0 mg/kg/injection, schedule: Q01DX015 (ip), vehicle: carboxymethylcellulose (CMC)",125 % of control
same,T/C,"dose: 32.5 micrograms/kg/injection, schedule: Q01DX015 (ip), vehicle: carboxymethylcellulose (CMC)",136 % of control
CC1CCOS(=O)O1 (stereo not drawn),survivor count,"dose: 150.0 mg/kg/injection, schedule: Q01DX Z (ip), vehicle: saline",6 of 6
same,survivor count,[1],1 of 6
same,survivor count,"dose: 300.0 mg/kg/injection, schedule: Q01DX Z (ip), vehicle: saline",0 of 6
C[C@H](N)C(=O)N[C@@H]1[C@H]2C(=C(O)C[C@@H](O)[C@@H]2O)C(=O)O[C@@H]1C,T/C,"dose: 99.0 mg/kg/injection, schedule: Q01DX015 (ip), vehicle: carboxymethylcellulose (CMC)",143 % of control
same,T/C,"dose: 148.0 mg/kg/injection, schedule: Q01DX015 (ip), vehicle: carboxymethylcellulose (CMC)",149 % of control
same,T/C,"dose: 221.0 mg/kg/injection, schedule: Q01DX015 (ip), vehicle: carboxymethylcellulose (CMC)",129 % of control
same,T/C,"dose: 250.0 mg/kg/injection, schedule: Q01DX Z (ip), vehicle: saline",139 % of control
same,T/C,"dose: 502.0 mg/kg/injection, schedule: Q01DX015 (ip), vehicle: carboxymethylcellulose (CMC)",142 % of control
same,T/C,"dose: 1000.0 mg/kg/injection, schedule: Q01DX Z (ip), vehicle: saline",136 % of control
same,T/C,"dose: 1500.0 mg/kg/injection, schedule: Q01DX Z (ip), vehicle: saline",140 % of control
CN(C)c1ccc(/C=C/c2ccnc3ccccc23)cc1,survivor count,"dose: 75.0 mg/kg/injection, schedule: Q01DX Z (ip), vehicle: saline",6 of 6
same,survivor count,"dose: 100.0 mg/kg/injection, schedule: Q01DX Z (ip), vehicle: saline",6 of 6
S=P(N1CCOCC1)(N1CC1)N1CC1,T/C,[2],128 % of control
same,survivor count,[2],6 of 6
same,survivor count,[3],5 of 6
same,survivor count,[4],5 of 6
same,survivor count,[5],3 of 6
c1nc(SC2=NCCN2)c2[nH]cnc2n1,survivor count,"dose: 25.0 mg/kg/injection, schedule: Q01DX Z (ip), vehicle: saline",6 of 6
same,survivor count,"dose: 50.0 mg/kg/injection, schedule: Q01DX Z (ip), vehicle: saline",6 of 6
NC(=O)N(CCCl)N=O,T/C,"dose: 0.22 mg/kg/injection, schedule: Q01DX Z (ip), vehicle: saline",138 % of control
same,T/C,"dose: 2.5 mg/kg/injection, schedule: Q01DX Z (ip), vehicle: saline",140 % of control
same,survivor count,"dose: 10.0 mg/kg/injection, schedule: Q01DX Z (ip), vehicle: saline",5 of 6
C=C(C)CSc1ncnc2nc[nH]c12,survivor count,"dose: 500.0 mg/kg/injection, schedule: Q01DX015 (ip), vehicle: other",1 of 6
Cc1cc(N(CCCl)CCCl)ccc1N=Nc1ccccc1C(=O)O,survivor count,[3],5 of 6
same,survivor count,[4],4 of 6
same,survivor count,[5],0 of 6
CCC1(Sc2ncnc3nc[nH]c23)C(=O)NC(=O)NC1=O,survivor count,"dose: 400.0 mg/kg/injection, schedule: Q01DX010 (ip), vehicle: alkali diluted with saline",6 of 6
CS(=O)(=O)OCCCl,survivor count,[1],4 of 6
COCCCNS(=O)(=O)c1ncnc2nc[nH]c12,survivor count,[3],6 of 6
same,survivor count,[6],6 of 6
CC(=O)OCC1OC(n2cnc3c(=S)nc(N)[nH]c32)C(OC(C)=O)C1OC(C)=O (stereo not drawn),survivor count,"dose: 50.0 mg/kg/injection, schedule: Q01DX Z (ip), vehicle: other",6 of 6
same,survivor count,"dose: 100.0 mg/kg/injection, schedule: Q01DX Z (ip), vehicle: other",6 of 6
N#CCSc1ncnc2nc[nH]c12,survivor count,[3],6 of 6
same,survivor count,"dose: 150.0 mg/kg/injection, schedule: Q01DX Z (ip), vehicle: carboxymethylcellulose (CMC)",6 of 6
same,survivor count,[6],0 of 6
